Measured values as given in the supplement of paper PMC12067093, “Discovery and optimisation of a covalent ligand for TRIM25 and its application to targeted protein ubiquitination” (Chemical Science, 2025).
This is one part of the list.

The chains behind the UniProt entries cited, without tags or fusion partners. Where a name states a change or a piece, a line headed by the entry shows the natural chain unless it says otherwise.
UniProt Q6P1X5, whole entry, looked up: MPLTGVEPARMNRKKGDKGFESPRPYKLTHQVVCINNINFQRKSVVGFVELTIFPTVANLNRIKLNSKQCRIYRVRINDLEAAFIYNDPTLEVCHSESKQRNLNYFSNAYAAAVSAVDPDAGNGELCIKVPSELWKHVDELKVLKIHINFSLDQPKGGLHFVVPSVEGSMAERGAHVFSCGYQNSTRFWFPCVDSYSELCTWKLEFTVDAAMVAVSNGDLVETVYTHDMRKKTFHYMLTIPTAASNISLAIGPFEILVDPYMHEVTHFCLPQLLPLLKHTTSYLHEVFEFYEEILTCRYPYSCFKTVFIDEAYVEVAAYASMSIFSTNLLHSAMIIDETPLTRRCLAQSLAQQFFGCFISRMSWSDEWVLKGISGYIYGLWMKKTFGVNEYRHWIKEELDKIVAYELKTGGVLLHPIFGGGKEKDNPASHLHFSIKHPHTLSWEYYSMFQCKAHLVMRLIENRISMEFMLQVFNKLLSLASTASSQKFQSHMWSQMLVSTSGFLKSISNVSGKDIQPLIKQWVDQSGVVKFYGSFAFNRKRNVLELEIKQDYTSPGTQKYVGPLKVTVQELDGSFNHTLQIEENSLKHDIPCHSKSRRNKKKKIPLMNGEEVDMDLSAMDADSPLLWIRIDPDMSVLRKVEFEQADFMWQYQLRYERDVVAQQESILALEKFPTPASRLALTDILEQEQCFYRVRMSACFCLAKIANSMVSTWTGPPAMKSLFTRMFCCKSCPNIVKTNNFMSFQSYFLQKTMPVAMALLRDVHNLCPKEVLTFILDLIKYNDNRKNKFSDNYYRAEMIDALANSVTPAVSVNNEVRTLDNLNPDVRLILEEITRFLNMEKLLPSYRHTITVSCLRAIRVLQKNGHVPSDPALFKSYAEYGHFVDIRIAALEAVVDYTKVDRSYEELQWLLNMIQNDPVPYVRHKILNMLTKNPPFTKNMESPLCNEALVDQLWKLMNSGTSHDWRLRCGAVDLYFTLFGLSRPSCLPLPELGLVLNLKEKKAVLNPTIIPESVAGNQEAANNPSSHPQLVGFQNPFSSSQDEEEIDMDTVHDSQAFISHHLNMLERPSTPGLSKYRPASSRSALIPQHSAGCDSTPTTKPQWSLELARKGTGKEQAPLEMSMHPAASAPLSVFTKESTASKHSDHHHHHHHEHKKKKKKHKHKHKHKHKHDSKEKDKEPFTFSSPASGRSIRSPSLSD
UniProt Q93075: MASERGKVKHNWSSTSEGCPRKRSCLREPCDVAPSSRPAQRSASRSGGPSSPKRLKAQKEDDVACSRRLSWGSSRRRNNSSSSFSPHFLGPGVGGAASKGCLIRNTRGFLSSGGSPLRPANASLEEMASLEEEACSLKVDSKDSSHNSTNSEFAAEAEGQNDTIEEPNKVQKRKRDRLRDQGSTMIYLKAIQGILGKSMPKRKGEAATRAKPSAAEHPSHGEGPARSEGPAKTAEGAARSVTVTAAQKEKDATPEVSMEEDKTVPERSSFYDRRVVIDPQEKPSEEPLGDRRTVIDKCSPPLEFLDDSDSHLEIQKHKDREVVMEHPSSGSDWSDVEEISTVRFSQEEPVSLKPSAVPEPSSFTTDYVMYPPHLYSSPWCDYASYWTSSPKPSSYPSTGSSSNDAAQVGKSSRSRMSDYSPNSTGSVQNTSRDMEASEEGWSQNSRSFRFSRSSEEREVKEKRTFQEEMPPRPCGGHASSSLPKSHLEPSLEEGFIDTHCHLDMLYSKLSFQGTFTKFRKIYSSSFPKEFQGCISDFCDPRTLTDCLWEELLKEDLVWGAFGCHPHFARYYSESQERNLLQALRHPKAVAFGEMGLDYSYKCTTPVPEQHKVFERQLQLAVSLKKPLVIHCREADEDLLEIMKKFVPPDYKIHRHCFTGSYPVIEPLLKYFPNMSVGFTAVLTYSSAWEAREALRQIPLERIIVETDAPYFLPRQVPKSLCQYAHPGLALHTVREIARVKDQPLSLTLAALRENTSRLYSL
UniProt Q92804: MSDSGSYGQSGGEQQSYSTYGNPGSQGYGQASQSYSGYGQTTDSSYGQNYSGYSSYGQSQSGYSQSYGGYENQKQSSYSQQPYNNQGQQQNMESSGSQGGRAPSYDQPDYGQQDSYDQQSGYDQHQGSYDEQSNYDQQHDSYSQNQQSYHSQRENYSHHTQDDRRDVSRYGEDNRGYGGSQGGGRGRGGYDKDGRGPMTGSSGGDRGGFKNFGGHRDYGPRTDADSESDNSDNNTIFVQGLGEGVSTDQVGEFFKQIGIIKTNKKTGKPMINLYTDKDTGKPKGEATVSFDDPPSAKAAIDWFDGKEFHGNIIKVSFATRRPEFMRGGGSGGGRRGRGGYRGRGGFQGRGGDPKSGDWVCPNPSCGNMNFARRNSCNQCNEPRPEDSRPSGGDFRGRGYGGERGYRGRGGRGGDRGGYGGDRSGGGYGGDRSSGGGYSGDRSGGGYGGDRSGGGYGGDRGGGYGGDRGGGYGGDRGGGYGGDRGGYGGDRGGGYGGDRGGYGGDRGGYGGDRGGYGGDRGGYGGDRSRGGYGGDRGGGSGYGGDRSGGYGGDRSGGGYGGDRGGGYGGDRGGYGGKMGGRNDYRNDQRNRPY
UniProt O15056: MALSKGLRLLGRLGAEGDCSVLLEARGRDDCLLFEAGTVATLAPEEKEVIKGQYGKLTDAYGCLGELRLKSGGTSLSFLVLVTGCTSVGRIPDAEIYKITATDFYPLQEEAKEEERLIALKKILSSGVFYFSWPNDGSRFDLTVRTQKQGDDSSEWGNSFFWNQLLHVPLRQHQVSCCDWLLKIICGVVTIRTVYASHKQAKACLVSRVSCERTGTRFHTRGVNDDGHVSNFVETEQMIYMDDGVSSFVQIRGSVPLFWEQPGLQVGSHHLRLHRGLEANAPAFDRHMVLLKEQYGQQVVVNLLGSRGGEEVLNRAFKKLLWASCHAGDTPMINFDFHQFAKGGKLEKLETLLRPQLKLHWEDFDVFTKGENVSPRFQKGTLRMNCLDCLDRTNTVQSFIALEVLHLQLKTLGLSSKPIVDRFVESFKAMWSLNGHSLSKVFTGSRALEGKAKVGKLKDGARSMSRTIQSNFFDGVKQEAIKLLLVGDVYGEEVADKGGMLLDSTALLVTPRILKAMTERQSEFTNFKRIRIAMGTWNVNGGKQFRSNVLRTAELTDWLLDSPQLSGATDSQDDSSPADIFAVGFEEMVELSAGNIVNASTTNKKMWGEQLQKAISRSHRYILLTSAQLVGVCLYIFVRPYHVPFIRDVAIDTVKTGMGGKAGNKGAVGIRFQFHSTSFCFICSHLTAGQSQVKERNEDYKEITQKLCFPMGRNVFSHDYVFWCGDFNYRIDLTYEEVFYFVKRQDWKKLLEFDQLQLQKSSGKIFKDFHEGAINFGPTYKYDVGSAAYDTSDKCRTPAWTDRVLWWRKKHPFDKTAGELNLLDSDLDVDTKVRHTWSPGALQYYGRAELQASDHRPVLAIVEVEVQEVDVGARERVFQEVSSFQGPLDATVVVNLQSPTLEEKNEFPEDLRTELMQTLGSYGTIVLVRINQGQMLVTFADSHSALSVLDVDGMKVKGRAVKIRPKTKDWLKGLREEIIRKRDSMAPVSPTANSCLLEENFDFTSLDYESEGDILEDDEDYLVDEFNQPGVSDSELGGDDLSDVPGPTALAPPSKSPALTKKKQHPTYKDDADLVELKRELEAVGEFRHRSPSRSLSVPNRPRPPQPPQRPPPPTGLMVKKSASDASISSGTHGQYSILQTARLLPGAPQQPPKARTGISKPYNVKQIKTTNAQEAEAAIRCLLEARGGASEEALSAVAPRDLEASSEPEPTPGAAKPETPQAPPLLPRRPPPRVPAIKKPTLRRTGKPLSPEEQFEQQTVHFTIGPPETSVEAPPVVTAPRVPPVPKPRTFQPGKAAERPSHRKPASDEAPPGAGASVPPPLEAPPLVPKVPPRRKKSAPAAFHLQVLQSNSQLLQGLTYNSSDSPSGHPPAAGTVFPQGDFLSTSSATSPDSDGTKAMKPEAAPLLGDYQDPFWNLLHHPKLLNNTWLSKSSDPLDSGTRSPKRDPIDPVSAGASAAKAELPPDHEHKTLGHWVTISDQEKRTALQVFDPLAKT
UniProt Q9P2M4: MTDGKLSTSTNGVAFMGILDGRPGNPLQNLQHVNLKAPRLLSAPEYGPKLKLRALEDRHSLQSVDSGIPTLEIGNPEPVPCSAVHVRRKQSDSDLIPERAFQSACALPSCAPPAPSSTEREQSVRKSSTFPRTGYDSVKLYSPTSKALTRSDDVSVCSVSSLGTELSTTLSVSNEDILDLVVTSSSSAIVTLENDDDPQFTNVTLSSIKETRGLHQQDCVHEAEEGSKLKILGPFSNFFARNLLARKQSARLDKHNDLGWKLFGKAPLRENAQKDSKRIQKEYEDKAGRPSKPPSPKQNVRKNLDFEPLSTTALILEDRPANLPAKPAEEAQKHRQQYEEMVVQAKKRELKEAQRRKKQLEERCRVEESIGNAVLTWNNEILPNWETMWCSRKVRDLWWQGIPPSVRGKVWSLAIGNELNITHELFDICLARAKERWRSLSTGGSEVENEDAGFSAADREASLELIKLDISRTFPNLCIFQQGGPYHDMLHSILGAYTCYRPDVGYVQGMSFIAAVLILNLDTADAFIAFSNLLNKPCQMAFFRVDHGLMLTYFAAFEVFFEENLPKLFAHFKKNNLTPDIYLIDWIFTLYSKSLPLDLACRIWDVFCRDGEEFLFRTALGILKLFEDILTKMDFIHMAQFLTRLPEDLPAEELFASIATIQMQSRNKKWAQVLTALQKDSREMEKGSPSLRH
UniProt O75410: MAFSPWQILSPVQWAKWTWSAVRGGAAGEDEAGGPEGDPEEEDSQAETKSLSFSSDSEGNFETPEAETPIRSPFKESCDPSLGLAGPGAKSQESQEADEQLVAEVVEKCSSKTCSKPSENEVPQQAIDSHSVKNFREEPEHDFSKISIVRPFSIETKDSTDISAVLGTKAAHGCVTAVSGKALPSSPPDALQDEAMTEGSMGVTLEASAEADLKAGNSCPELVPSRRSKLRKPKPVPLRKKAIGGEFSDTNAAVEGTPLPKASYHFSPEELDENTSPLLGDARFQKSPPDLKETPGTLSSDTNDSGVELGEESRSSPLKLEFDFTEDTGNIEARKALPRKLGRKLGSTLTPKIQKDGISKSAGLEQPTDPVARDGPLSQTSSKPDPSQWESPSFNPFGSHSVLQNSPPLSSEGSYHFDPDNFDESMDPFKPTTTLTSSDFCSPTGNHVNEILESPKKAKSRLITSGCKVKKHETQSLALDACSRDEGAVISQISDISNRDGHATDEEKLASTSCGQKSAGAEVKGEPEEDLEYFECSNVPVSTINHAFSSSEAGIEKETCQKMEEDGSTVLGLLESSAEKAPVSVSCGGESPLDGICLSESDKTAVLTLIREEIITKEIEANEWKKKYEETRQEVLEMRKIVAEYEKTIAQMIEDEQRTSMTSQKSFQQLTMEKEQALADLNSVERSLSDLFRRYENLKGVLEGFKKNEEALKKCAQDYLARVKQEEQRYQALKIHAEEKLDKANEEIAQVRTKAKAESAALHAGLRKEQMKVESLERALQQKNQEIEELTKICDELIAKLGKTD
UniProt Q6P1N9: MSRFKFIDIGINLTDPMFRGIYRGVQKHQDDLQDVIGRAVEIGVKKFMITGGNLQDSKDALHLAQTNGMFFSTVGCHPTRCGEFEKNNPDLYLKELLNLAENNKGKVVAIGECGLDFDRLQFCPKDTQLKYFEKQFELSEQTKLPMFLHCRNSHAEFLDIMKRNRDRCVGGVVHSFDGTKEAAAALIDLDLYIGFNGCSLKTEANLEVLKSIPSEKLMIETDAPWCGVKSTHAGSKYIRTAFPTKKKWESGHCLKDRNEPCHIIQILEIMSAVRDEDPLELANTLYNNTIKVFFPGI
UniProt Q9Y4P3: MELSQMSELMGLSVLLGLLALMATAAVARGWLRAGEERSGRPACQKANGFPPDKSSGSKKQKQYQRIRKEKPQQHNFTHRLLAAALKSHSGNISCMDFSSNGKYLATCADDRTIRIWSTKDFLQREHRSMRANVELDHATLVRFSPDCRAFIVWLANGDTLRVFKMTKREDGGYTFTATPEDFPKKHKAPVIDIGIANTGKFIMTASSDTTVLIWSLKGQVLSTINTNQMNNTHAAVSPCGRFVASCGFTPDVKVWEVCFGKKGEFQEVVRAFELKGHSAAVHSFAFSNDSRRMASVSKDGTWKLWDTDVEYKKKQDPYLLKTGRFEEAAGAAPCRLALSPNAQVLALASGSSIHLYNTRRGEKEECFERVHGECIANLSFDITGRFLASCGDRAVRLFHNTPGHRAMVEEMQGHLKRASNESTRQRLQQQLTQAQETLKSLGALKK
UniProt Q16563: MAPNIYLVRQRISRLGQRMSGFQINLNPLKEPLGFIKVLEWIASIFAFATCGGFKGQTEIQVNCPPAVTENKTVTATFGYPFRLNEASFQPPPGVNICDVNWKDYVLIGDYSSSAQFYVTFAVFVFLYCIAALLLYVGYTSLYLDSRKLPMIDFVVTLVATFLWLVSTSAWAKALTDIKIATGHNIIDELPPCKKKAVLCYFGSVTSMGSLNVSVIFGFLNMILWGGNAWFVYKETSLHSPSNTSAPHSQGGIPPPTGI

What follows are targets tested with Cc1cc(ccc1-c1ccccc1)C(=O)N1CCCN(CC1)C(=O)CCl [compound 10] (assay: probe-labelled cysteine peptide fold change vs DMSO (competition) (log2 fold change); higher = less target engagement (more negative = stronger competition)). Settings: 10 µM; THP-1; incubation time: 4 h.
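Further: competitive profiling in live THP-1 cells: cysteine peptides tagged with an iodoacetamide desthiobiotin (IA-DTB) probe, intensity after compound treatment relative to DMSO-treated cells.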

Target | probe-labelled cysteine peptide fold change
TAF2_Q6P1X5_34_LTHQVVCINNINFQR (UniProt Q6P1X5) | -0.181
TATDN2_Q93075_563_EDLVWGAFGCHPHFAR (UniProt Q93075) | -0.00416
TBC1D15_Q8TC07_184_YVVLCESPQDKR (UniProt Q8TC07) | 0.0621
TAF15_Q92804_379_NSCNQCNEPRPEDSR (UniProt Q92804) | 0.0599
TBL3_Q12788_696_DPEACEK (UniProt Q12788) | -0.21
TBCK_Q8TEA7_330_SIEEVYYLWCLAGGDLEK (UniProt Q8TEA7) | -0.139
TAF5_Q15542_632_IFAGHLADVNCTR (UniProt Q15542) | 0.228
TBC1D4_O60343_402_HVDHFGFICR (UniProt O60343) | 0.0428
TBC1D24_Q9ULP9_386_FYFQCEGHEPTLLLIK (UniProt Q9ULP9) | 0.179
SYNJ2_O15056_19_LGAEGDCSVLLEAR (UniProt O15056) | 0.409
TCIRG1_Q13488_25_SEEVALVQLFLPTAAAYTCVSR (UniProt Q13488) | 0.2
TAF6_P49848_130_VPLDVCLK (UniProt P49848) | -0.0404
TBC1D14_Q9P2M4_81_HSLQSVDSGIPTLEIGNPEPVPCSAVHVR (UniProt Q9P2M4) | -0.189
TBL3_Q12788_41_AQLDQTGQHLFCVCGTR (UniProt Q12788) | 0.148
TAF5_Q15542_661_LWDVLNGNCVR (UniProt Q15542) | -0.124
TACC1_O75410_219_AGNSCPELVPSR (UniProt O75410) | -0.318
TBCK_Q8TEA7_871_ICILDGGINK (UniProt Q8TEA7) | -0.096
TCIRG1_Q13488_241_KITDCFHCHVFPFLQQEEAR (UniProt Q13488) | -0.0907

Target | probe-labelled cysteine peptide fold change
SYNPO2_Q9UMS6_290_VEVILDCSDR (UniProt Q9UMS6) | -0.3
TBC1D10A_Q9BXI6_324_ACQGQYETIER (UniProt Q9BXI6) | -0.209
TATDN1_Q6P1N9_168_CVGGVVHSFDGTK (UniProt Q6P1N9) | 0.103
TARSL2_A2RTX5_637_YHQCATIQLDFQLPIR (UniProt A2RTX5) | 0.00987
TARSL2_A2RTX5_422_EQELFFFHDLSPGSCFFLPR (UniProt A2RTX5) | -0.1
TCF20_Q9UGU0_1163_CLMSSDGLPNK (UniProt Q9UGU0) | -0.08
TCF20_Q9UGU0_1795_SEDCGGGPR (UniProt Q9UGU0) | -0.142
TBL2_Q9Y4P3_259_VWEVCFGK (UniProt Q9Y4P3) | 0.063
TAF1B_Q53T94_326_YLMEVNLPDEMHSLTCHVVK (UniProt Q53T94) | 0.0813
TARS_P26639_343_IGRDQELYFFHELSPGSCFFLPK (UniProt P26639) | 0.0409
TARDBP_Q13148_39_VTEDENDEPIEIPSEDDGTVLLSTVTAQFPGACGLR (UniProt Q13148) | 0.0296
TBL1XR1_Q9BZK7_434_GICIHTLTK (UniProt Q9BZK7) | 0.0165
SYTL1_Q8IYJ3_290_VHVIQCQGLAAAR (UniProt Q8IYJ3) | -0.00544
TATDN1_Q6P1N9_261_DRNEPCHIIQILEIMSAVR (UniProt Q6P1N9) | 0.148
TBC1D15_Q8TC07_184_YVVLCESPQDK (UniProt Q8TC07) | 0.0735
TBCD_Q9BTW9_899_SQPELIEAHTCER (UniProt Q9BTW9) | 0.0463
TATDN1_Q6P1N9_150_LPMFLHCR (UniProt Q6P1N9) | -0.0457
SYPL1_Q16563_193_IATGHNIIDELPPCK (UniProt Q16563) | -0.147

Same assay, conditions: 50 µM; THP-1; incubation time: 4 h

Target | probe-labelled cysteine peptide fold change
TAF2_Q6P1X5_34_LTHQVVCINNINFQR (UniProt Q6P1X5) | 0.115
TATDN2_Q93075_563_EDLVWGAFGCHPHFAR (UniProt Q93075) | -0.32
TBC1D15_Q8TC07_184_YVVLCESPQDKR (UniProt Q8TC07) | -0.0543
TAF15_Q92804_379_NSCNQCNEPRPEDSR (UniProt Q92804) | 0.496
TBL3_Q12788_696_DPEACEK (UniProt Q12788) | -0.486
TBCK_Q8TEA7_330_SIEEVYYLWCLAGGDLEK (UniProt Q8TEA7) | 0.12
TAF5_Q15542_632_IFAGHLADVNCTR (UniProt Q15542) | 0.44
TBC1D4_O60343_402_HVDHFGFICR (UniProt O60343) | 0.132
TBC1D24_Q9ULP9_386_FYFQCEGHEPTLLLIK (UniProt Q9ULP9) | 0.159
SYNJ2_O15056_19_LGAEGDCSVLLEAR (UniProt O15056) | 0.208
TCIRG1_Q13488_25_SEEVALVQLFLPTAAAYTCVSR (UniProt Q13488) | -0.307
TAF6_P49848_130_VPLDVCLK (UniProt P49848) | 0.0412
TBC1D14_Q9P2M4_81_HSLQSVDSGIPTLEIGNPEPVPCSAVHVR (UniProt Q9P2M4) | -0.286
TBL3_Q12788_41_AQLDQTGQHLFCVCGTR (UniProt Q12788) | -0.0118
TAF5_Q15542_661_LWDVLNGNCVR (UniProt Q15542) | 0.173
TACC1_O75410_219_AGNSCPELVPSR (UniProt O75410) | -0.269
TBCK_Q8TEA7_871_ICILDGGINK (UniProt Q8TEA7) | 0.167
TCIRG1_Q13488_241_KITDCFHCHVFPFLQQEEAR (UniProt Q13488) | -0.178

Target | probe-labelled cysteine peptide fold change
SYNPO2_Q9UMS6_290_VEVILDCSDR (UniProt Q9UMS6) | -0.237
TBC1D10A_Q9BXI6_324_ACQGQYETIER (UniProt Q9BXI6) | -0.104
TATDN1_Q6P1N9_168_CVGGVVHSFDGTK (UniProt Q6P1N9) | -0.202
TARSL2_A2RTX5_637_YHQCATIQLDFQLPIR (UniProt A2RTX5) | 0.158
TARSL2_A2RTX5_422_EQELFFFHDLSPGSCFFLPR (UniProt A2RTX5) | -0.0948
TCF20_Q9UGU0_1163_CLMSSDGLPNK (UniProt Q9UGU0) | -0.485
TCF20_Q9UGU0_1795_SEDCGGGPR (UniProt Q9UGU0) | -0.0709
TBL2_Q9Y4P3_259_VWEVCFGK (UniProt Q9Y4P3) | 0.174
TAF1B_Q53T94_326_YLMEVNLPDEMHSLTCHVVK (UniProt Q53T94) | 0.0691
TARS_P26639_343_IGRDQELYFFHELSPGSCFFLPK (UniProt P26639) | 0.0137
TARDBP_Q13148_39_VTEDENDEPIEIPSEDDGTVLLSTVTAQFPGACGLR (UniProt Q13148) | 0.118
TBL1XR1_Q9BZK7_434_GICIHTLTK (UniProt Q9BZK7) | 0.0285
SYTL1_Q8IYJ3_290_VHVIQCQGLAAAR (UniProt Q8IYJ3) | 0.25
TATDN1_Q6P1N9_261_DRNEPCHIIQILEIMSAVR (UniProt Q6P1N9) | 0.216
TBC1D15_Q8TC07_184_YVVLCESPQDK (UniProt Q8TC07) | 0.217
TBCD_Q9BTW9_899_SQPELIEAHTCER (UniProt Q9BTW9) | -0.24
TATDN1_Q6P1N9_150_LPMFLHCR (UniProt Q6P1N9) | -0.267
SYPL1_Q16563_193_IATGHNIIDELPPCK (UniProt Q16563) | 0.0871
